# Assay results taken from the supplement of paper PMC9454738.
# Structures can show the parent of a compound that is named as a salt. ± gives the standard deviation of the averaged measurements. Some of the results follow. Single values are uncertain here, since repeats match poorly.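 Assays used MDA-MB-231 triple-negative breast cancer cells and their brain-metastatic line MDA-MB-231BRM, stably carrying empty vector, full-length GLI1 or truncated tGLI1. After 48 h, viability was read with CellTiter-Blue and normalized to 1% DMSO vehicle. tGLI1 selectivity meant viability fell 20% more in tGLI1 cells than in vector and GLI1 cells.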
# Test system: MDA-MB-231 GLI1
# Assay: cell viability relative to vehicle (DMSO) control (fraction); higher = more viable cells (less growth inhibition)
# Details: 0.5 µM; treatment time 48 h
row,Structure (SMILES),cell viability
1,NC1(c2ccc(-c3nc4ccn5c(=O)[nH]nc5c4cc3-c3ccccc3)cc2)CCC1,0.986
2,O=C1NC(=O)/C(=C/c2ccc(-c3ccc(F)cc3O)o2)S1,1.44
3,CN(C)CCOc1ccc(-c2nc(-c3ccncc3)c(-c3ccc4c(c3)CC/C4=N\O)[nH]2)cc1,0.654
4,O=C1NC(=O)/C(=C/c2cccc(C(F)(F)F)c2)S1,3.05
5,C=CC(=O)Nc1ccc2ncnc(Nc3cccc(Br)c3)c2c1,1.48
6,"COc1cc(F)c(F)c(Nc2ccc(I)cc2F)c1NS(=O)(=O)C1(C[C@H](O)CO)CC1 [Refametinib (RDEA119, Bay 86-9766)]",1.22
7,Cc1cc(CN2CCN(c3c(Br)cnc4nc(-c5ccc(N6CCN(C)CC6)cc5)[nH]c34)CC2)no1,1
8,Cc1cc(F)c(Nc2ncnc3cc(OCc4ccccc4)ccc23)cc1O,1.15
9,CN1CCC(CNc2ccc3ncc(-c4cccc(OC(F)(F)F)c4)n3n2)CC1 [SGI-1776 free base],0.58
10,COc1cc(OC)c(/C=C/S(=O)(=O)Cc2ccc(OC)c(NCC(=O)O)c2)c(OC)c1,0.953
11,COc1ncc(-c2ccc3nccc(-c4ccnnc4)c3c2)cc1NS(=O)(=O)c1ccc(F)cc1F,0.392
12,S=C(NCc1ccc2c(c1)OCO2)N1CCN(c2ncnc3c2oc2ccccc23)CC1 [Amuvatinib (MP-470)],0.798
13,OCCn1cc(-c2cnc3nnn(Cc4ccc5ncccc5c4)c3n2)cn1,1.46
14,Cc1c(NC(=O)c2ccc(C(C)(C)C)cc2)cccc1-c1cn(C)c(=O)c(Nc2ccc(C(=O)N3CCOCC3)cc2)n1,1.75

# Same assay, conditions: 5 µM; treatment time 48 h
row,Structure (SMILES),cell viability
1,C[C@H]1[C@H](C)CC[C@]2(C(=O)O)CC[C@]3(C)C(=CC[C@@H]4[C@@]5(C)C[C@@H](O)[C@H](O)[C@@](C)(CO)[C@@H]5CC[C@]43C)[C@H]12 [Asiatic Acid],1.12
2,O=C1NC(=O)C(c2ccccc2[N+](=O)[O-])=C1Nc1ccc(O)c(Cl)c1,1.27
3,Cc1c(Cn2c(C)nc3c(C(=O)O)cc(N4CCOCC4)cc32)cccc1C(F)(F)F,1.01
4,Cc1ccc(NC(=O)c2ccc(CN3CCN(C)CC3)cc2)cc1Nc1nccc(-c2cccnc2)n1 [Imatinib (STI571)],1.11
5,CCC(=O)NCC[C@@H]1CCc2ccc3c(c21)CCO3 [Ramelteon (TAK-375)],1.13
6,NC(=O)Nc1cc(-c2cccc(F)c2)sc1C(=O)N[C@H]1CCCNC1,0.0427
7,COc1cc2ncnc(Oc3ccc(CC(=O)Nc4cnn(C(C)C)c4)cc3)c2cc1OC,1.15
8,CC(C)(C)NS(=O)(=O)c1cncc(-c2cc(F)c3nc(N)nn3c2)c1,0.921
9,O=C(Nc1cc(C(F)(F)F)cc(C(F)(F)F)c1)c1cc(Cl)ccc1O,-0.127
10,CN1CCC(COc2cnc(-c3cccc(Cn4nc(-c5cccc(C#N)c5)ccc4=O)c3)nc2)CC1,1.31
11,CC(C)CC(=O)Nc1n[nH]c2c1CN(C(=O)C1CCN(C)CC1)C2(C)C,0.176
12,COc1cc2ncc(-c3ccccc3)nc2cc1OC [Tyrphostin AG 1296],1.24
13,C1=N/C2=N/c3ccc(OCCN4CCCC4)c(c3)COC/C=C/COCc3cccc(c3)C(=C1)N2 [Pacritinib (SB1518)],-0.0419
14,O=C(NCCO)c1cccc(-c2cc(Nc3ccc(OC(F)(F)F)cc3)ncn2)c1,2.01
15,N#CC(=C(/N)Sc1ccccc1N)/C(C#N)=C(\N)Sc1ccccc1N,1.02
16,CN(C)Cc1cccc(N/C(=C2\C(=O)Nc3cc(C(N)=O)ccc32)c2ccccc2)c1,1.58
17,C[C@@H](CN1CC(=O)NC(=O)C1)N1CC(=O)NC(=O)C1 [Dexrazoxane Hydrochloride],1.14
18,COc1ccc(-c2ccc3ncc4c(c3c2)n(-c2ccc(N3CCNCC3)c(C(F)(F)F)c2)c(=O)n4C)cn1,-0.195
19,CC(C)(C)c1cnc(CSc2cnc(NC(=O)C3CCNCC3)s2)o1,0.195
20,Cc1c(F)cc(C(=O)NC2CC2)cc1-c1ccc(C(=O)NCC(C)(C)C)cn1,1.25

row,Structure (SMILES),cell viability
1,CCCC1O[C@@H]2C[C@H]3[C@@H]4CCC5=CC(=O)C=C[C@]5(C)[C@H]4[C@@H](O)C[C@]3(C)[C@]2(C(=O)CO)O1 (stereo partly drawn) [Budesonide],1.05
2,C[C@@H](Oc1cc(-c2cnn(C3CCNCC3)c2)cnc1N)c1c(Cl)ccc(F)c1Cl,0.554 ± 0.22
3,O=C1NC(=O)/C(=C/c2ccc3nccc(-c4ccncc4)c3c2)S1,0.363
4,Cc1ccc2nc(NCCN)c3ncc(C)n3c2c1,0.38
5,CC(=O)[C@]1(O)Cc2c(O)c3c(c(O)c2[C@@H](O[C@H]2C[C@H](N)[C@H](O)[C@H](C)O2)C1)C(=O)c1ccccc1C3=O [Idarubicin HCl],-0.204
6,NC1(c2ccc(-c3nc4ccn5c(=O)[nH]nc5c4cc3-c3ccccc3)cc2)CCC1,0.251
7,O=C1NC(=O)/C(=C/c2ccc(-c3ccc(F)cc3O)o2)S1,0.816
8,CN(C)CCOc1ccc(-c2nc(-c3ccncc3)c(-c3ccc4c(c3)CC/C4=N\O)[nH]2)cc1,-0.199
9,O=C1NC(=O)/C(=C/c2cccc(C(F)(F)F)c2)S1,2.17
10,C=CC(=O)Nc1ccc2ncnc(Nc3cccc(Br)c3)c2c1,0.571
11,"COc1cc(F)c(F)c(Nc2ccc(I)cc2F)c1NS(=O)(=O)C1(C[C@H](O)CO)CC1 [Refametinib (RDEA119, Bay 86-9766)]",0.68
12,Cc1cc(CN2CCN(c3c(Br)cnc4nc(-c5ccc(N6CCN(C)CC6)cc5)[nH]c34)CC2)no1,-0.0445
13,Cc1cc(F)c(Nc2ncnc3cc(OCc4ccccc4)ccc23)cc1O,0.599
14,CN1CCC(CNc2ccc3ncc(-c4cccc(OC(F)(F)F)c4)n3n2)CC1 [SGI-1776 free base],0.39
15,COc1cc(OC)c(/C=C/S(=O)(=O)Cc2ccc(OC)c(NCC(=O)O)c2)c(OC)c1,0.102
16,COc1ncc(-c2ccc3nccc(-c4ccnnc4)c3c2)cc1NS(=O)(=O)c1ccc(F)cc1F,0.262
17,S=C(NCc1ccc2c(c1)OCO2)N1CCN(c2ncnc3c2oc2ccccc23)CC1 [Amuvatinib (MP-470)],1.1
18,OCCn1cc(-c2cnc3nnn(Cc4ccc5ncccc5c4)c3n2)cn1,1
19,Cc1c(NC(=O)c2ccc(C(C)(C)C)cc2)cccc1-c1cn(C)c(=O)c(Nc2ccc(C(=O)N3CCOCC3)cc2)n1,1.04
